# Out of some 320,000 compounds screened, about 22,000 (6.9%) were called active. The shares of active, inactive and inconclusive entries below differ from those in the screen. The call rests on the fitted dose curve; in most records, active means well fitted inhibition curve with a large enough effect; inconclusive means small, poorly fitted or top-dose-only effect, or another doubt; inactive means no such curve, though single readings can be large or run the other way. A potency beside an inconclusive call is a rough fit, not a confirmed value.
# Assay: Primary qHTS for delayed death inhibitors of the malarial parasite plastid, 96 hour incubation
# Conditions: P. falciparum luciferase reporter growth; series mostly up to 28.7 µM
# In short: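 Luminescence readout: decreased luciferase signal marks inhibited growth of reporter-expressing P. falciparum in infected red cells (2% hematocrit, 0.05% parasitemia final), exposed to compound two generations (96 h, 37 C, 5% CO2).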
# On the % scale 0 is the no-effect control and ±100 the full control effect; potency means the concentration at half of the fitted maximal effect.
Structure (SMILES),Potency,"activity change, negative = inhibition"
CSc1ccc(S(=O)(=O)Nc2ccc3c(c2)OCCO3)cc1,inactive,
Cc1ccnc(NC(=O)C2CCN(S(=O)(=O)c3c(C)c(C)cc(C)c3C)CC2)c1,"inconclusive: 18.5 µM [inhibitor, single point]",
O=C(O)CC/C(=N/NC(=O)c1cn(-c2ccccc2)nc1-c1ccccc1)C(=O)O,"inconclusive: 18.5 µM [inhibitor, single point]",
CCC(=O)N(C)CCc1cc2c(c(OC)c1/C=N/NC(=O)[C@H]1C[C@@H]1c1ccccc1)OCO2,"inconclusive: 9.28 µM [inhibitor, single point]",
O=C(c1ccc(N2CCCC2)c([N+](=O)[O-])c1)N1CCN(S(=O)(=O)c2ccccc2)CC1,"inconclusive: 4.15 µM [inhibitor, partial curve]",
CC(=O)NNc1ccc(C(F)(F)F)cc1[N+](=O)[O-],"inconclusive: 13.1 µM [inhibitor, partial curve, poor fit]",
COC(=O)[C@H](Cc1ccccc1)NC(=O)N1CCCCC1C (stereo partly specified),inactive,
CCOC(=O)CN(C(=O)COc1nc(-c2ccccc2)cc(C)c1C#N)c1ccccc1,"inconclusive: 3.29 µM [inhibitor, full curve, poor fit]",
Cc1nonc1-c1csc(N)n1,inactive,
O=C(C1=C[C@@H](c2csc3ccccc23)C[C@@H](OCc2ccc(CO)cc2)O1)N1CCN(Cc2ccccc2)CC1,active: 5.22 µM,
O=C(/C=C/c1ccccc1[N+](=O)[O-])NCc1cccnc1,"inconclusive: 2.08 µM [inhibitor, full curve, poor fit]",
CC(NC(=O)C(=O)N1CCCCC1)C(c1cccs1)N1CCN(c2ccc(F)cc2)CC1 (stereo unspecified),"inconclusive: 14.7 µM [inhibitor, single point]",
Cn1c(CC(=O)Nc2ccccc2)nnc1SCC(=O)NC1=NCCS1,active: 2.62 µM,
CCCCn1c(O)c(C(CC)=NCCN2CCCCC2)c(=O)[nH]c1=O,"inconclusive: 13.1 µM [inhibitor, single point]",
Cc1c(C=O)c2ccccc2n1Cc1cccc(F)c1,"inconclusive: 10.4 µM [inhibitor, single point]",
O=S(=O)(c1ccccc1)c1ccc(N2CCCCCC2)cc1,"inconclusive: 13.1 µM [inhibitor, single point]",
Cn1cnnc1SCC(=O)NC1CCCC1,"inconclusive: 9.28 µM [inhibitor, partial curve]",
CCOC(=O)c1cc2c(=O)n3ccccc3nc2n(Cc2ccco2)c1=NC(=O)c1ccc(OC)cc1,inactive,
CCOc1cc(/C=N/NC(=O)c2ccc(CN3CCOCC3)cc2)ccc1OC,inactive,
COC(=O)C1CCN(c2nc3ccccc3nc2C(C#N)C(=O)OCC(C)C)CC1 (stereo unspecified),"inconclusive: 8.28 µM [inhibitor, partial curve]",
Brc1ccccc1OCCN1CCOCC1,"inconclusive: 18.5 µM [inhibitor, single point]",
COc1ccccc1NC(=O)C(C)N(C)Cc1ccc(Cl)s1 (stereo unspecified),"inconclusive: 13.1 µM [inhibitor, partial curve, poor fit]",
CCOc1ccc(S(=O)(=O)Nc2nc3ccccc3nc2Nc2ccc(N3CCOCC3)cc2)cc1,"inconclusive: 13.1 µM [inhibitor, single point]",
S=C(Nc1cccc(Cl)c1)Nc1ccc2c(c1)OCCO2,inactive,

Structure (SMILES),Potency,"activity change, negative = inhibition"
COc1ccc(C(=O)Nc2cc(C)cc(C)c2)cc1S(=O)(=O)N1CCOCC1,inactive,
CC1CCN(S(=O)(=O)c2ccc(NC(=O)CN3CCN(c4ccccc4)CC3)cc2)CC1,inactive,
CC1CC(C)CN(C(=O)c2ccc3ccccc3c2)C1 (stereo unspecified),"inconclusive: 0.294 µM [inhibitor, full curve, poor fit]",
Brc1cc2c(cc1C1Nc3ccccc3C3C=CCC31)OCO2 (stereo unspecified),inactive,
Cc1cc(C)cc(OC2CCCCC2NS(=O)(=O)c2ccccc2)c1 (stereo unspecified),"inconclusive: 16.5 µM [inhibitor, single point]",
O=C(COC(=O)c1c(F)cccc1F)NCc1ccc2c(c1)OCO2,inactive,
Cc1ccc(N2CC(C(=O)N3CCCCCC3)CC2=O)cc1 (stereo unspecified),"inconclusive: 18.5 µM [inhibitor, single point]",
CCC(C)(C)c1ccc(OCCCC[n+]2ccc(C)cc2)c(C(C)(C)CC)c1,active: 3.7 µM,
CCC(CC)Nc1ccc(C(CC(N)=O)NC(=O)Cc2cccc3ccccc23)cc1[N+](=O)[O-] (stereo unspecified),"inconclusive: 4.15 µM [inhibitor, partial curve, poor fit]",
O=C(CCSc1ccccc1)N1CCOCC1,"inconclusive: 18.5 µM [inhibitor, single point]",
CCCCNC(=O)c1ccc2c(c1)ncn2C1CCCC1,"inconclusive: 9.28 µM [inhibitor, single point]",
CC(C)Oc1ccc(S(=O)(=O)N2CCCCC2)cc1NC(=O)CN1C(=O)NC(C)(C2CC2)C1=O (stereo unspecified),inactive,
CC1CCN(C(=O)CNC(=O)c2ccc(Cl)cc2Cl)CC1,inactive,
O=C(CCC(=O)N(c1ccccc1)C(C(=O)NC1CCCC1)c1ccncc1)Nc1cccnc1 (stereo unspecified),"inconclusive: 14.7 µM [inhibitor, single point]",
CCOC(=O)[C@H]1[C@H]2COc3ccccc3[C@@H]2N2C(=O)c3cc(OC)c(OC)cc3NC(=O)[C@@]12C,"inconclusive: 18.5 µM [inhibitor, single point]",
O=C(CSc1nnc2c(Cl)cc(Cl)cn12)N1CCN(c2ccc(F)cc2)CC1,"inconclusive: 18.5 µM [inhibitor, partial curve, poor fit]",
N#CC1=C(SCc2ccccc2Cl)NC(=O)C(C(N)=O)C1 (stereo unspecified),inactive,
COc1cccc(C2Nc3c(F)cc(Br)cc3C3C=CCC32)c1OC (stereo unspecified),active: 11.7 µM,
CCOC(=O)c1c(NC(=O)CSc2ncnc3[nH]ncc23)sc2c1CCC(C)C2 (stereo unspecified),"inconclusive: 18.5 µM [inhibitor, single point]",
CC(=O)c1cnc2cc(-c3ccccc3)nn2c1C,"inconclusive: 7.38 µM [inhibitor, partial curve, poor fit]",
COc1ccc(CCN(C)CCCN2CCc3cc(OC)c(OC)cc3CC2=O)cc1OC,"inconclusive: 10.7 µM [inhibitor, partial curve]",
NC[C@@H]1O[C@H](O[C@H]2[C@H](O)[C@H](O[C@@H]3O[C@H](CO)[C@@H](O)[C@H](N)[C@@H]3O)[C@@H](N)C[C@H]2N)[C@@H](O)[C@H](O)[C@@H]1O,inactive,
c1ccc(-n2nnnc2-c2cnc(-c3ccncc3)nc2-c2cccs2)cc1,"inconclusive: 18.5 µM [inhibitor, single point]",
COc1cccc(-c2cccc(NC(=O)C3CCN(Cc4ccc(C)o4)CC3)c2)c1,inactive,

# Structural class, those above with a nitro group on carbon (4)
Structure (SMILES),Potency,"activity change, negative = inhibition"
O=C(c1ccc(N2CCCC2)c([N+](=O)[O-])c1)N1CCN(S(=O)(=O)c2ccccc2)CC1,"inconclusive: 4.15 µM [inhibitor, partial curve]",
CC(=O)NNc1ccc(C(F)(F)F)cc1[N+](=O)[O-],"inconclusive: 13.1 µM [inhibitor, partial curve, poor fit]",
O=C(/C=C/c1ccccc1[N+](=O)[O-])NCc1cccnc1,"inconclusive: 2.08 µM [inhibitor, full curve, poor fit]",
CCC(CC)Nc1ccc(C(CC(N)=O)NC(=O)Cc2cccc3ccccc23)cc1[N+](=O)[O-] (stereo unspecified),"inconclusive: 4.15 µM [inhibitor, partial curve, poor fit]",

# The list continues.

Structure (SMILES),Potency,"activity change, negative = inhibition"
Cc1cc(NC(=O)c2ccccc2NS(=O)(=O)c2c(C)c(C)cc(C)c2C)no1,"inconclusive: 0.0294 µM [inhibitor, full curve, poor fit]",
CC(=O)Nc1ccc2nsnc2c1,inactive,
Clc1ccc(OCCNCCc2ccccc2)cc1,"inconclusive: 11.7 µM [inhibitor, single point]",
CC1=C(C(=O)OCC2CCCO2)C(c2ccsc2)C2=C(CCCC2=O)N1 (stereo unspecified),"inconclusive: 18.5 µM [inhibitor, single point]",
Cc1ccc(N(CC2CO2)S(=O)(=O)c2ccccc2[N+](=O)[O-])cc1 (stereo unspecified),inactive,
CCOC(=O)C1CCCN(CCC(=O)Nc2cc(C)ccc2C)C1 (stereo unspecified),active: 6.57 µM,
N#CCSc1nnc(-c2sc3ccccc3c2Cl)o1,inactive,
CCn1c(=O)c(CCC(=O)N2CCOCC2)c(C)c2c(C)nn(-c3ccccc3)c21,"inconclusive: 18.5 µM [inhibitor, single point]",
CN(C)S(=O)(=O)c1cccc(C(=O)C2=C3SC=C(c4ccccc4)N3CC2)c1,active: 3.29 µM,
O=C(Cc1ccccc1)NCc1ccc(-n2cccc2)cc1,,inactive: 53% [at 1.15 µM]
CC(OC(=O)c1cc2sccc2n1C)C(=O)NCCc1ccccc1 (stereo unspecified),"inconclusive: 18.5 µM [inhibitor, single point]",
O=C(COc1ccc(C(=S)N2CCOCC2)cc1)Nc1ccccc1C(F)(F)F,"inconclusive: 16.5 µM [inhibitor, single point]",
CCOC(=O)CSc1nnc(NC(=O)c2cccc([N+](=O)[O-])c2C)s1,"inconclusive: 0.415 µM [inhibitor, partial curve, poor fit]",
C=C1C(=O)[C@@]23[C@H](O)C[C@@H]4C(C)(C)CC[C@H](O)[C@]4(C)[C@@H]2C[C@H](O)[C@@H]1[C@H]3O,active: 4.15 µM,
O=c1ccc2cc(O)c(O)cc2o1,inactive,
O=C(Nc1ccc(Cl)cc1)c1cccnc1N1CCCCC1,"inconclusive: 11.7 µM [inhibitor, partial curve, poor fit]",
CCc1cc(=O)oc2cc(C)cc(OC(C)C(=O)NC3CC(C)(C)NC(C)(C)C3)c12 (stereo unspecified),"inconclusive: 14.7 µM [inhibitor, single point]",
CSc1cccc(NC(=O)c2[nH]c(C)c(C(C)=O)c2C)c1,"inconclusive: 18.5 µM [inhibitor, single point]",
NC(=O)C1(N2CCCCC2)CCN(Cc2ccc(F)cc2)CC1,inactive,
COc1ccc2oc(=Nc3cccc(F)c3)c(C(N)=O)cc2c1,inactive,
O=C1CSC(c2ccc(Cl)cc2Cl)N1c1ccccn1 (stereo unspecified),"inconclusive: 4.15 µM [inhibitor, single point]",
Cn1c(=NC(=O)c2ccco2)sc2ccccc21,inactive,
C[C@H](CCC(=O)O)[C@H]1CC[C@H]2[C@@H]3[C@H](O)C[C@@H]4C[C@H](O)CC[C@]4(C)[C@H]3C[C@H](O)[C@]12C,active: 11.7 µM,

# Source: PubChem BioAssay AID504834 (National Center for Advancing Translational Sciences (NCATS), 2011)
